No constants are given. Whether binding was seen depends on the method and setting. Some binding calls cover weakened binding; strength is not graded here.
Biological target: Coxsackie-Adenovirus Receptor (CAR) on A549 lung carcinoma cells (human) (UniProt P78310)
Assay: recombinant Ad5 knob (100 µg/ml) as competitor of virus attachment to A549 cells

Chains of the proteins cited; added tags and fusions are not shown. Residues count along the entry.
UniProt P78310, residues 20-365: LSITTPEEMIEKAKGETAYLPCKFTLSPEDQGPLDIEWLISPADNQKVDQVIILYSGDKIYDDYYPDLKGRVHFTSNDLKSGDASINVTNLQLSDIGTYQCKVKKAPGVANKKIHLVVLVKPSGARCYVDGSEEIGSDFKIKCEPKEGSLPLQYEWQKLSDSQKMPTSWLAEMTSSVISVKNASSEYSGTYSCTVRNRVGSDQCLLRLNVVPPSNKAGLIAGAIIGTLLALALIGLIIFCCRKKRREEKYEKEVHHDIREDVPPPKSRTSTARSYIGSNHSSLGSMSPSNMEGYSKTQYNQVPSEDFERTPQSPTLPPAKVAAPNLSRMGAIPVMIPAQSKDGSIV

B1: recombinant Ad5 knob (protein)
chain: GAITVGNKNNDKLTLWTTPAPSPNCRLNAEKDAKLTLVLTKCGSQILATVSVLAVKGSLAPISGTVQSAHLIIRFDENGVLLNNSFLDPEYWNFRNGDLTEGTAYTNAVGFMPNLSAYPKSHGKTAKSNIVSQVYLNGDKTKPVTLTITLNGTQETGDTTPSAYSMSFSWDWSGHNYINEIFATSSYTFSYIAQE
  binding: binds
